These are yes or no findings as the source states them, for the method shown. Binding seen in cells or lysates may run through a third protein. These calls come from enrichment with a bait or labelling near it, and not all partners need be listed.
Assays:
[1] = biological target: Anterior gradient 2 (AGR2), endogenous (human (endogenous in T47D, A549)) (UniProt O95994); assay: affinity purification with mass spectrometry; T47D cells crosslinked in vivo with 0.6 mM DSP (control: no DSP); 400 ug lysate incubated overnight at 4 °C with biotinylated E7 peptide on streptavidin-agarose to capture endogenous AGR2 with its partners (F4 peptide as control); elution with 0.1 M glycine pH 2.5; LC-MS/MS with label-free quantification
[2] = biological target: Anterior gradient 2 (AGR2), stably expressed in H1299-LZ4-AGR2 cells (human) (UniProt O95994); assay: affinity purification with mass spectrometry; DSP-crosslinked H1299-AGR2 (heavy R10K8) and H1299 (light R0K0) lysates mixed 200 ug + 200 ug; overnight at 4 °C with biotinylated E7 peptide on streptavidin-agarose to capture AGR2 with its partners (F4 peptide as control); elution with 0.1 M glycine pH 2.5; LC-MS/MS with SILAC quantification

Protein sequences, listed by entry. Tags and fused reporters are not part of them. Lines headed by an entry give the natural chain unless they say otherwise; changes in a name come on top. Residues count along the entry.
UniProt O95994, residues 21-175: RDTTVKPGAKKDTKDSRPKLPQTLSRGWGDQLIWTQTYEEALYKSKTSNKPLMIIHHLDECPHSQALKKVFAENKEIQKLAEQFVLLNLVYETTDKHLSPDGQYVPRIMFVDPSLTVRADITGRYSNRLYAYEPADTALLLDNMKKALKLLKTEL

Binder	binding [1]	binding [2]
arogenate dehydratase 3 (ADT3) (protein, UniProt P12236 1-298) MTEQAISFAKDFLAGGIAAAISKTAVAPIERVKLLLQVQHASKQIAADKQYKGIVDCIVRIPKEQGVLSFWRGNLANVIRYFPTQALNFAFKDKYKQIFLGGVDKHTQFWRYFAGNLASGGAAGATSLCFVYPLDFARTRLAADVGKSGTEREFRGLGDCLVKITKSDGIRGLYQGFSVSVQGIIIYRAAYFGVYDTAKGMLPDPKNTHIVVSWMIAQTVTAVAGVVSYPFDTVRRRMMMQSGRKGADIMYTGTVDCWRKIFRDEGGKAFFKGAWSNVLRGMGGAFVLVLYDELKKVI	binds	binds
MCCB (protein, UniProt Q9HCC0 23-563) YHGDSVASLGTQPDLGSALYQENYKQMKALVNQLHERVEHIKLGGGEKARALHISRGKLLPRERIDNLIDPGSPFLELSQFAGYQLYDNEEVPGGGIITGIGRVSGVECMIIANDATVKGGAYYPVTVKKQLRAQEIAMQNRLPCIYLVDSGGAYLPRQADVFPDRDHFGRTFYNQAIMSSKNIAQIAVVMGSCTAGGAYVPAMADENIIVRKQGTIFLAGPPLVKAATGEEVSAEDLGGADLHCRKSGVSDHWALDDHHALHLTRKVVRNLNYQKKLDVTIEPSEEPLFPADELYGIVGANLKRSFDVREVIARIVDGSRFTEFKAFYGDTLVTGFARIFGYPVGIVGNNGVLFSESAKKGTHFVQLCCQRNIPLLFLQNITGFMVGREYEAEGIAKDGAKMVAAVACAQVPKITLIIGGSYGAGNYGMCGRAYSPRFLYIWPNARISVMGGEQAANVLATITKDQRAREGKQFSSADEAALKEPIIKKFEEEGNPYYSSARVWDDGIIDPADTRLVLGLSFSAALNAPIEKTDFGIFRM	binds	binds

Source: PMC8816719
